In publication PMC7819943, “Rice protein-binding microarrays: a tool to detect cis-acting elements near promoter regions in rice”:
The other results are listed elsewhere or left out.

molecular target: T1, OsSMF1 (Oryza sativa, UniProt Q6ZLB0 1-436); test: protein-binding microarray (RPBM); PBS, 2% BSA, 51.3 ng/ul salmon testes DNA, 50 uM zinc acetate, 200 nM TF, 25 C, 1 h; high values mean tight binding; details: protein: recombinant; tags: N-terminal polyhistidine and DsRed monomer fusion (pET32a); chain copies: 2; label: CyDye5-dUTP incorporated in the synthesized complementary strand; 3' TTTTT single-stranded linker to array surface; dsDNA, one strand shown
T1 sequence: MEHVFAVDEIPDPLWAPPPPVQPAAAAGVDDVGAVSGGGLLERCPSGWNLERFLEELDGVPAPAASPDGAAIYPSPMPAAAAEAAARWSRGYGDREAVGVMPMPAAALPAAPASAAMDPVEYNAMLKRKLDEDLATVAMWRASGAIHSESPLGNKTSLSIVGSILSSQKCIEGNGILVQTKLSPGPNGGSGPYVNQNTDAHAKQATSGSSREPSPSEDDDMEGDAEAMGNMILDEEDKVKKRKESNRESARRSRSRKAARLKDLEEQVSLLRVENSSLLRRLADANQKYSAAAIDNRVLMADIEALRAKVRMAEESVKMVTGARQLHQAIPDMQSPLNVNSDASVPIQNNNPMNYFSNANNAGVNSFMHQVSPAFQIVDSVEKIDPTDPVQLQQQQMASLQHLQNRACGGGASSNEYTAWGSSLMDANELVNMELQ
Outline: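 An Axon 4000B scanner gave the binding signal as per-feature fluorescence intensity in arbitrary units. This followed washing of a custom Agilent array that had been incubated for 1 h at 25 °C with 200 nM protein in PBS, 2% BSA, salmon testes DNA and 50 µM zinc acetate. The proteins were transcription factors fused at the N-terminus to polyhistidine and DsRed, expressed in E. coli BL21-CodonPlus and purified on Ni–NTA.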

Sequence	binding signal
CGGTGAGATTATAAAATGCCACGTGGCAATCTAAGAGCGTCGGAGTCACCTAGTGCAG	29100 fluorescence intensity (a.u.)
TCCTCGACCGGCACGTCCATCATCACACGTAGACTCAGAACGGAGTCACCTAGTGCAG	5590 fluorescence intensity (a.u.)
TCGTCTCCTCCGCCGCCACGTCCCCGAGCCCCGCGTCCTGCGGAGTCACCTAGTGCAG	10300 fluorescence intensity (a.u.)
CGTAACACAATATATGACGTACATCCATCCACTCAACCCACGGAGTCACCTAGTGCAG	3380 fluorescence intensity (a.u.)
AGGTAATGTATCATAAAACTATAGATTTAACACTAAATTTCGGAGTCACCTAGTGCAG	53000 fluorescence intensity (a.u.)
AGCAGTACTGTCCACCGTGAGGCCCCACGCGCCATTGTCGCGGAGTCACCTAGTGCAG	3320 fluorescence intensity (a.u.)
TGATTTCTCCACTGACTCATCCCCATCATCTCCTCTTCTGCGGAGTCACCTAGTGCAG	8710 fluorescence intensity (a.u.)
CCTCCAGGCCTCCAGCTACTACGCGTCGTGGCTTCTCGCGCGGAGTCACCTAGTGCAG	3420 fluorescence intensity (a.u.)
TATATGCTTTTGGAACTTTGTTGCTTTGATTATGTGATGTCGGAGTCACCTAGTGCAG	25500 fluorescence intensity (a.u.)
TCGGCGGCGAACTTCCCCGCCGACGTGCCAGATCTCAAACCGGAGTCACCTAGTGCAG	4610 fluorescence intensity (a.u.)
CAACTAGTTGCTGACCAAGCACAGAAGCACTGTAATGAGTCGGAGTCACCTAGTGCAG	6800 fluorescence intensity (a.u.)
TCATCCCAGCTACAGCCTGACGCAGCTATAAATATCTCGTCGGAGTCACCTAGTGCAG	3610 fluorescence intensity (a.u.)
GCCGAGCTCTCCTTTCCGCGCTGTAACTGCAATGCAGCGTCGGAGTCACCTAGTGCAG	3300 fluorescence intensity (a.u.)
ACCTAGCTACCACTAGTAGCGTCGTCGTCATCGTCGTCGTCGGAGTCACCTAGTGCAG	3560 fluorescence intensity (a.u.)
ATGGTTTAGAGGGTTGTTGTCAGGATGACTAGCATTGAGTCGGAGTCACCTAGTGCAG	3420 fluorescence intensity (a.u.)
GTTGTTCGCACATGTTTAGTGCCACGTTACTAGTTTAATTCGGAGTCACCTAGTGCAG	3860 fluorescence intensity (a.u.)
TCCCCGATGAGTGGGTGTTTTAATTGCTCCCTGTTGATATCGGAGTCACCTAGTGCAG	3210 fluorescence intensity (a.u.)
TCACATGATGTCTTGGATGTTGTGTAGAAATTCTCTTTCCCGGAGTCACCTAGTGCAG	3560 fluorescence intensity (a.u.)
TAGTCTCAGAAACAGGACGTGTGTAATCTGGATTCTGGACCGGAGTCACCTAGTGCAG	4450 fluorescence intensity (a.u.)
ATGGATGGGAGGTCAATCTTGATGGGCCGTTATGAGGTTGCGGAGTCACCTAGTGCAG	35300 fluorescence intensity (a.u.)
CCTCGTCGCCGCGTCACGGCGTCAGCTCGCCGCTCTAGGGCGGAGTCACCTAGTGCAG	4820 fluorescence intensity (a.u.)

Sequence	binding signal
TGTGGTGGTGCTGTACACGTTGTGTGTGTGTGTTCGATGTCGGAGTCACCTAGTGCAG	5140 fluorescence intensity (a.u.)
AGGGAGTTTGCGGACACGGCGGCGGCACCGCGGATCTGTTCGGAGTCACCTAGTGCAG	37000 fluorescence intensity (a.u.)
AGACCCTGTCCTCCTCCGTCCACGCAGACGCCGGCCTCAACGGAGTCACCTAGTGCAG	3280 fluorescence intensity (a.u.)
CTCTGGCGATGTGGCGTCTGGTCAAATTCATTGTCTCTACCGGAGTCACCTAGTGCAG	47900 fluorescence intensity (a.u.)
AAGTTGGTACTCCTGTATGAATCATCAGTCTGAACTTGACCGGAGTCACCTAGTGCAG	4620 fluorescence intensity (a.u.)
ATTCCGGCTCATGTTTTACGCCACGCAGTCCTCCTCCTTCCGGAGTCACCTAGTGCAG	5080 fluorescence intensity (a.u.)
GCCTTGCATCCGCGCTACAGTGGGTCATCGTCTTCACTGCCGGAGTCACCTAGTGCAG	3220 fluorescence intensity (a.u.)
TGCGTGCGAGTTGGCTGACTCGATCTCGATTACTGCTCACCGGAGTCACCTAGTGCAG	5600 fluorescence intensity (a.u.)
TGCCATCCTGACCCACATGTCATTGACTAATATGAGTCCTCGGAGTCACCTAGTGCAG	3580 fluorescence intensity (a.u.)
GGCGTTCAGCAACCCGTGCATCATCCACGGTGTGTGCGGCCGGAGTCACCTAGTGCAG	3590 fluorescence intensity (a.u.)
TTATTTGTCCTGCTGCGTGCCGACGATGTTGTTGACGTGTCGGAGTCACCTAGTGCAG	13700 fluorescence intensity (a.u.)
ATTCGTAGTATTAGAATGTGTCACATCCAATATTAGGTTGCGGAGTCACCTAGTGCAG	3440 fluorescence intensity (a.u.)
AACTCGGTGGTGACCACGCGTCCACATCTCTCATCTTTCTCGGAGTCACCTAGTGCAG	3720 fluorescence intensity (a.u.)
GGTCACTCATCACAGTCACAGATCGACGGCGACACAGCTGCGGAGTCACCTAGTGCAG	4930 fluorescence intensity (a.u.)
AACCAACCAACCACGTCGATCGCTCGCAGTCGCCGCCGCGCGGAGTCACCTAGTGCAG	3840 fluorescence intensity (a.u.)
CACGACTCACGACCGCGTCGTCGTCACCAACTCCGGCTACCGGAGTCACCTAGTGCAG	3990 fluorescence intensity (a.u.)
GTAATCATGTACTAGTACCAAATACTGACACATTACCTTCCGGAGTCACCTAGTGCAG	4770 fluorescence intensity (a.u.)
GTTAATCTCATTTAGTTACTGATGACGCCCTGTTGTTCGACGGAGTCACCTAGTGCAG	4960 fluorescence intensity (a.u.)
AATTTCATCCATATATTCGTAATCGTGTCACTAAAATTTTCGGAGTCACCTAGTGCAG	3760 fluorescence intensity (a.u.)
CACTTCCTACTTTCATTTAGTGCTGACTTGTTGCAACTTTCGGAGTCACCTAGTGCAG	4030 fluorescence intensity (a.u.)
GTTGCTCCAACTAGTTGTATGACCTGTCACTCGTGGAGAGCGGAGTCACCTAGTGCAG	10800 fluorescence intensity (a.u.)

Pulled one by one from above (3):
Sequence	binding signal
TTATTTGTCCTGCTGCGTGCCGACGATGTTGTTGACGTGTCGGAGTCACCTAGTGCAG	13700 fluorescence intensity (a.u.)
GTTAATCTCATTTAGTTACTGATGACGCCCTGTTGTTCGACGGAGTCACCTAGTGCAG	4960 fluorescence intensity (a.u.)
AGGGAGTTTGCGGACACGGCGGCGGCACCGCGGATCTGTTCGGAGTCACCTAGTGCAG	37000 fluorescence intensity (a.u.)
